The text below walks through data of PMC10799014.

By UniProt entry, the sequences of proteins in these tests, tags left out.
UniProt P49023: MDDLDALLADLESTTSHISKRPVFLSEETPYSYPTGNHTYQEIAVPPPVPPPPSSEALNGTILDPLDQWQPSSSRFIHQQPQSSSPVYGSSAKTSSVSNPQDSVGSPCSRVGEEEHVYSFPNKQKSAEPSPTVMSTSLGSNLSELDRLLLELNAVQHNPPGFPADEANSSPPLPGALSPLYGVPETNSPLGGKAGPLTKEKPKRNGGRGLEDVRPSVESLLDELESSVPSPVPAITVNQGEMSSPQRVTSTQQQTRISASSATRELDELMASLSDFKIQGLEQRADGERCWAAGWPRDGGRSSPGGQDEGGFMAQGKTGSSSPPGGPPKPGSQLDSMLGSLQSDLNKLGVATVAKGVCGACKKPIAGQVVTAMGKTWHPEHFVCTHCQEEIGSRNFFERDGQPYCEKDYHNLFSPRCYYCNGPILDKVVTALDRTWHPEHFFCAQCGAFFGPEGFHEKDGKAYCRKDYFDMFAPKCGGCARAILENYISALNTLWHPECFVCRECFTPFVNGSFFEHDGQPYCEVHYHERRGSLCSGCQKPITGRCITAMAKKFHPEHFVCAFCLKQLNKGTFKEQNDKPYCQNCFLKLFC

These are yes or no findings as the source states them, for the method shown. Binding seen in cells or lysates may run through a third protein. Some entries that bind do so weakly or less than the wild type. Where a sequence is shown, tags or fusion partners need not be part of it.

This assay deals with paxillin, Venus-fragment fusion for BiFC (UniProt P49023). In words: split reporter; BiFC with Venus fragments V1 and V2 in HeLa cells, 200 ng of each plasmid, fixed after 24 h, confocal microscopy with uniform laser settings.

B1: rapsyn, Venus-fragment fusion for BiFC (protein, UniProt Q13702 1-412)
chain: MGQDQTKQQIEKGLQLYQSNQTEKALQVWTKVLEKSSDLMGRFRVLGCLVTAHSEMGRYKEMLKFAVVQIDTARELEDADFLLESYLNLARSNEKLCEFHKTISYCKTCLGLPGTRAGAQLGGQVSLSMGNAFLGLSVFQKALESFEKALRYAHNNDDAMLECRVCCSLGSFYAQVKDYEKALFFPCKAAELVNNYGKGWSLKYRAMSQYHMAVAYRLLGRLGSAMECCEESMKIALQHGDRPLQALCLLCFADIHRSRGDLETAFPRYDSAMSIMTEIGNRLGQVQALLGVAKCWVARKALDKALDAIERAQDLAEEVGNKLSQLKLHCLSESIYRSKGLQRELRAHVVRFHECVEETELYCGLCGESIGEKNSRLQALPCSHIFHLRCLQNNGTRSCPNCRRSSMKPGFV
Consider B1, for which the binding entry is recorded as “binds”.
